# Screening data

Data taken from PubChem BioAssay AID588532, deposited by NCATS (2011).

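HeLa cells carrying a glucocorticoid-responsive beta-lactamase reporter, read as the blue/green fluorescence ratio after 18 hours of agonist-mode exposure.
Compounds were tested as a dilution series; the record's dose columns span about 0.00043 to 54,000 µM.
The value is a fitted half-maximal activation concentration (AC50), so a lower number means a more potent agonist.
Calls come from the dose-curve shape; inconclusive marks weak, poorly fitted, top-dose-only or side-signal effects, and all rows here are inconclusive.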

Values are in µM.
All entries here are filed as inconclusive.
Only part of the assay is shown, chiefly results filed as inconclusive.
Potencies fitted to partial, single-point or poorly fitting curves are rough.
The first word of each remark tells which way the curve ran; it can be opposite to the aim of the assay.

SMILES	potency (µM)	curve as filed
COC(=O)Nc1nc2ccccc2[nH]1	19.95	side channel, falling, partial curve, poor fit
CC[C@H]1O[C@]2(CC[C@@H]1C)C[C@@H]1C[C@@H](C/C=C(\C)C[C@@H](C)/C=C/C=C3CO[C@@H]4[C@H](O)C(C)=C[C@@H](C(=O)O1)[C@]34O)O2	14.13	side channel, rising, partial curve, poor fit
Nc1ccccc1[N+](=O)[O-]	0.2818	side channel, falling, full curve, poor fit
Oc1c(Cl)ccc(Cl)c1Cl	0.0007	side channel, falling, full curve, poor fit
C=CC(N)=O	3.162	side channel, falling, full curve, poor fit
CCCCOC(=O)[C@@H](C)Oc1ccc(Oc2ccc(C(F)(F)F)cn2)cc1	25.12	side channel, falling, single point
C=C(C)C(=O)OCCC[Si](Cl)(Cl)Cl	0.0447	side channel, rising, full curve, poor fit
C=CC(C)(CCC=C(C)C)OC(C)=O (stereo not given)	10	side channel, falling, partial curve, poor fit
CCCCCCCCCCCCCCCCCC#N	0.0251	side channel, rising, full curve, poor fit
O=P(OCCCl)(OCCCl)OCCCl	22.39	side channel, falling, partial curve, poor fit
CCCC[N+](=O)[O-]	0.0016	side channel, falling, full curve, poor fit
CCCCCC[N+](=O)[O-]	50.12	side channel, falling, single point
CCCCCCCCCCCCCCCC	0.0891	side channel, falling, full curve, poor fit
NC(=Nc1ccccc1)Nc1ccccc1	0.0158	side channel, falling, full curve, poor fit
S=C([S-])NCCNC(=S)[S-].[Zn+2]	12.59	side channel, rising, partial curve, poor fit
Oc1cc(Cl)cc(Cl)c1Cl	35.48	side channel, falling, partial curve, poor fit
CC1(C)C(C=C(Cl)Cl)C1C(=O)OCc1cccc(Oc2ccccc2)c1 (stereo not given)	4.467	side channel, rising, partial curve, poor fit
CCCOCC(C)OCC(C)O (stereo not given)	12.59	side channel, falling, partial curve, poor fit
CC(C)COP(=O)(OCC(C)C)OCC(C)C	63.1	side channel, falling, partial curve, poor fit
O=[N+]([O-])c1ccccc1Nc1ccccc1	0.1	side channel, falling, full curve, poor fit
CO/N=C1\C[C@]2(C[C@@H]3C[C@@H](C/C=C(\C)C[C@@H](C)/C=C/C=C4\CO[C@@H]5[C@H](O)C(C)=C[C@@H](C(=O)O3)[C@]45O)O2)O[C@H](/C(C)=C/C(C)C)[C@H]1C	0.0355	side channel, falling, full curve, poor fit
CC/C(=N\OC/C=C/Cl)C1=C(O)CC(C2CCOCC2)CC1=O (stereo not given)	0.3981	side channel, falling, full curve, poor fit
Clc1ccc(C(c2ccccc2Cl)C(Cl)(Cl)Cl)cc1 (stereo not given)	0.0282	side channel, falling, full curve, poor fit
CCCCC(=O)Cl	6.31	side channel, falling, partial curve, poor fit
O=C(Nc1ccccc1)c1cc(Cl)ccc1O	1.122	side channel, falling, full curve, poor fit
Nc1nc(N)c2nc(-c3ccccc3)c(N)nc2n1	39.81	activator, partial curve

Once more, the final 3:

SMILES	potency (µM)	curve as filed
CCCCC(=O)Cl	6.31	side channel, falling, partial curve, poor fit
O=C(Nc1ccccc1)c1cc(Cl)ccc1O	1.122	side channel, falling, full curve, poor fit
Nc1nc(N)c2nc(-c3ccccc3)c(N)nc2n1	39.81	activator, partial curve